Test results as given in the supplement of paper PMC12823440, “Inhibitors supercharge kinase turnover through native proteolytic circuits” (Nature, 2025).
Structures can show the parent of a compound that is named as a salt. This is one part of the list. The calls rarely recur for the same compound in another form.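 Kinases, fused to nanoluciferase, were expressed in K562 cells; luminescence was measured every 4 h from 2 to 18 h as percent of control (DMSO = 100%, positive control = 0%). A time point is decreased if signal falls significantly (2 sigma). Hits were called by the authors by a rule that is not shown; the count of time points alone does not decide it.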

The chains behind the UniProt entries cited, without tags or fusion partners. Where a name states a change or a piece, a line headed by the entry shows the natural chain unless it says otherwise.
UniProt Q9Y616: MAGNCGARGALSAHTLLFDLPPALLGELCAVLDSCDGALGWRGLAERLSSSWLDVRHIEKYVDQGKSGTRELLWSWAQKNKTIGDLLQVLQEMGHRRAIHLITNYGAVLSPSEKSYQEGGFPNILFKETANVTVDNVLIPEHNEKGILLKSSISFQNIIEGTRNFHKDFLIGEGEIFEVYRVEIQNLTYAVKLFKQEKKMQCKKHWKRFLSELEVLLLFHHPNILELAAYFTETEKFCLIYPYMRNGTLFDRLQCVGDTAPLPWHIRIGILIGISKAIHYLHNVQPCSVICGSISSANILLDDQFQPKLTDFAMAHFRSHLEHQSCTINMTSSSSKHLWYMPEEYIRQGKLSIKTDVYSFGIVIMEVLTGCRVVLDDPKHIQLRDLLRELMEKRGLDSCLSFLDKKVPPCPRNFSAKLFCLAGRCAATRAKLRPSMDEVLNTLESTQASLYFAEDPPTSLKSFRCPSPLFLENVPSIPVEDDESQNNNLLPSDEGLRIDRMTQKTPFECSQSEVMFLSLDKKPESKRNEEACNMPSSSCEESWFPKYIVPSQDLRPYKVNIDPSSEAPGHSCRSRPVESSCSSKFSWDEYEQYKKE
UniProt P23458: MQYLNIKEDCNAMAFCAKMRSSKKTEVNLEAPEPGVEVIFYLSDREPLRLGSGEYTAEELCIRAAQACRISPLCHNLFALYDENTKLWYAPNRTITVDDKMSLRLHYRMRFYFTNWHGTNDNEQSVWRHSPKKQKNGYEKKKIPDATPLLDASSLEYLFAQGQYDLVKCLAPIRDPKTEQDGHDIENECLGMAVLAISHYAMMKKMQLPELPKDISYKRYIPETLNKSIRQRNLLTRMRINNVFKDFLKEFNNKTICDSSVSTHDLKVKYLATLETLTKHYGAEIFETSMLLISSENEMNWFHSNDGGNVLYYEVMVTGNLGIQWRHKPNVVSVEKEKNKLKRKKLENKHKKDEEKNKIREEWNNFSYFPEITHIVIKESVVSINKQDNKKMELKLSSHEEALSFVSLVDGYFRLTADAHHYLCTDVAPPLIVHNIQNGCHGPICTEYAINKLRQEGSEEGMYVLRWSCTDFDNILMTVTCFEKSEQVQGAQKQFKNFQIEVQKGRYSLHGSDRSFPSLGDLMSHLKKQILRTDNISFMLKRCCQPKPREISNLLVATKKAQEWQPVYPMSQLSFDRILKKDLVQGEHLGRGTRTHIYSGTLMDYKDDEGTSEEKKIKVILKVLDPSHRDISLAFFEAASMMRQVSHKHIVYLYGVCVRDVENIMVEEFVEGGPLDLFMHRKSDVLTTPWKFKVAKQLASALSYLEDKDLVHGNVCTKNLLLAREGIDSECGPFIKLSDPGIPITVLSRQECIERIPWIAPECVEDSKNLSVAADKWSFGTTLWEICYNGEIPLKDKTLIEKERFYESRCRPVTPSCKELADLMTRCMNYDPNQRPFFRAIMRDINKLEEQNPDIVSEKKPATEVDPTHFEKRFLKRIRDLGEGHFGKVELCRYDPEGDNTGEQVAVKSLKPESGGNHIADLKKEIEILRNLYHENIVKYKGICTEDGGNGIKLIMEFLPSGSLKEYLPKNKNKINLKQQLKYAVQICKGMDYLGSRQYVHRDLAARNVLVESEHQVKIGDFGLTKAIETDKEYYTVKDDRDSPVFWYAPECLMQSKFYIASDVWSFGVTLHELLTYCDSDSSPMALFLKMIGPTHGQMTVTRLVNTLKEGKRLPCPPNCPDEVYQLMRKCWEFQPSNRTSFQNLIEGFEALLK
UniProt P06239: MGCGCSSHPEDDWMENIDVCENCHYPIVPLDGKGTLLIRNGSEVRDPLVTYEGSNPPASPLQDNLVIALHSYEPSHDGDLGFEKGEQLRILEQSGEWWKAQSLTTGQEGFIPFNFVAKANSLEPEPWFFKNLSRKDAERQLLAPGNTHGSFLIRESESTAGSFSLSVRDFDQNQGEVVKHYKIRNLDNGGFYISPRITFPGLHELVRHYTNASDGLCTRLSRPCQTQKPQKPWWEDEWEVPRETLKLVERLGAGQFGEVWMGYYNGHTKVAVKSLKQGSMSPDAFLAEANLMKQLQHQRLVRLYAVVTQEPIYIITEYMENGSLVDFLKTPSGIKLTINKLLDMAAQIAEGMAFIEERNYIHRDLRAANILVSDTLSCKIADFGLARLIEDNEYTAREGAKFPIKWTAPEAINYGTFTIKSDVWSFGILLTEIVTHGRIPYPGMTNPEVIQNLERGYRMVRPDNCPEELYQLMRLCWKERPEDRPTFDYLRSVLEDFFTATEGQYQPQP
UniProt P53667: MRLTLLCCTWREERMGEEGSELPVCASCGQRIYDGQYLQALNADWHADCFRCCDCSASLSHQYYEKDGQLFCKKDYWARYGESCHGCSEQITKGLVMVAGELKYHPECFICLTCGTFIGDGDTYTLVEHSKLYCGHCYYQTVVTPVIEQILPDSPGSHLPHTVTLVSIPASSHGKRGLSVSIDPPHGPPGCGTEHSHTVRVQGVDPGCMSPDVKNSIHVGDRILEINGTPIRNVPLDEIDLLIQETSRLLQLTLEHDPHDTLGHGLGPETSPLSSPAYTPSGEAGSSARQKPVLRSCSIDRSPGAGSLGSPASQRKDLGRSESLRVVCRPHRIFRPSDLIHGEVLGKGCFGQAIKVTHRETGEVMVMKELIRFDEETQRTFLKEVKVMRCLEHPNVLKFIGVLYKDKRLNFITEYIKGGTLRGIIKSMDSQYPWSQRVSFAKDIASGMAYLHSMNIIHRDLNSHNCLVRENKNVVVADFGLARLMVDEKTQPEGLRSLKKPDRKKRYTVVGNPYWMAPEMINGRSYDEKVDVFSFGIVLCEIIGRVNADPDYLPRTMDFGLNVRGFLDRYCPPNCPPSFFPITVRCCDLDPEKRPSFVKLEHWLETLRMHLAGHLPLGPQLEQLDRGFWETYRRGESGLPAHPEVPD
UniProt P53671: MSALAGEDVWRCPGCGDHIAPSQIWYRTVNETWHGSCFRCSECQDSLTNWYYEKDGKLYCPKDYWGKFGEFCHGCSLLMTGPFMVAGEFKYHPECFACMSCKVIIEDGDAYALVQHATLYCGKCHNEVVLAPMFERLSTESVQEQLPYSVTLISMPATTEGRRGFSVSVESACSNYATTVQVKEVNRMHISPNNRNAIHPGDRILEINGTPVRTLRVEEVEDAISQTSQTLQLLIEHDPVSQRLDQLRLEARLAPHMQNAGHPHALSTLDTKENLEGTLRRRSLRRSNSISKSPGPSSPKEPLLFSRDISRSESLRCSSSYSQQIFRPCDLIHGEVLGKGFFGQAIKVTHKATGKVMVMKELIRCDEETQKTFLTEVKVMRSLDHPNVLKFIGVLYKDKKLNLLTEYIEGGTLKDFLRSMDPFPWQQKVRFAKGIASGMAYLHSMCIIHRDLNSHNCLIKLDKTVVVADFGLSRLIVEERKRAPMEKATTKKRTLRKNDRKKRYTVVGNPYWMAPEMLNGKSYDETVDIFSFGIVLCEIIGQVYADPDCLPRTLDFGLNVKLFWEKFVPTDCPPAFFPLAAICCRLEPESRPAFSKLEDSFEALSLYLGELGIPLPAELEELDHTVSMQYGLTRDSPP
UniProt Q8IWU2: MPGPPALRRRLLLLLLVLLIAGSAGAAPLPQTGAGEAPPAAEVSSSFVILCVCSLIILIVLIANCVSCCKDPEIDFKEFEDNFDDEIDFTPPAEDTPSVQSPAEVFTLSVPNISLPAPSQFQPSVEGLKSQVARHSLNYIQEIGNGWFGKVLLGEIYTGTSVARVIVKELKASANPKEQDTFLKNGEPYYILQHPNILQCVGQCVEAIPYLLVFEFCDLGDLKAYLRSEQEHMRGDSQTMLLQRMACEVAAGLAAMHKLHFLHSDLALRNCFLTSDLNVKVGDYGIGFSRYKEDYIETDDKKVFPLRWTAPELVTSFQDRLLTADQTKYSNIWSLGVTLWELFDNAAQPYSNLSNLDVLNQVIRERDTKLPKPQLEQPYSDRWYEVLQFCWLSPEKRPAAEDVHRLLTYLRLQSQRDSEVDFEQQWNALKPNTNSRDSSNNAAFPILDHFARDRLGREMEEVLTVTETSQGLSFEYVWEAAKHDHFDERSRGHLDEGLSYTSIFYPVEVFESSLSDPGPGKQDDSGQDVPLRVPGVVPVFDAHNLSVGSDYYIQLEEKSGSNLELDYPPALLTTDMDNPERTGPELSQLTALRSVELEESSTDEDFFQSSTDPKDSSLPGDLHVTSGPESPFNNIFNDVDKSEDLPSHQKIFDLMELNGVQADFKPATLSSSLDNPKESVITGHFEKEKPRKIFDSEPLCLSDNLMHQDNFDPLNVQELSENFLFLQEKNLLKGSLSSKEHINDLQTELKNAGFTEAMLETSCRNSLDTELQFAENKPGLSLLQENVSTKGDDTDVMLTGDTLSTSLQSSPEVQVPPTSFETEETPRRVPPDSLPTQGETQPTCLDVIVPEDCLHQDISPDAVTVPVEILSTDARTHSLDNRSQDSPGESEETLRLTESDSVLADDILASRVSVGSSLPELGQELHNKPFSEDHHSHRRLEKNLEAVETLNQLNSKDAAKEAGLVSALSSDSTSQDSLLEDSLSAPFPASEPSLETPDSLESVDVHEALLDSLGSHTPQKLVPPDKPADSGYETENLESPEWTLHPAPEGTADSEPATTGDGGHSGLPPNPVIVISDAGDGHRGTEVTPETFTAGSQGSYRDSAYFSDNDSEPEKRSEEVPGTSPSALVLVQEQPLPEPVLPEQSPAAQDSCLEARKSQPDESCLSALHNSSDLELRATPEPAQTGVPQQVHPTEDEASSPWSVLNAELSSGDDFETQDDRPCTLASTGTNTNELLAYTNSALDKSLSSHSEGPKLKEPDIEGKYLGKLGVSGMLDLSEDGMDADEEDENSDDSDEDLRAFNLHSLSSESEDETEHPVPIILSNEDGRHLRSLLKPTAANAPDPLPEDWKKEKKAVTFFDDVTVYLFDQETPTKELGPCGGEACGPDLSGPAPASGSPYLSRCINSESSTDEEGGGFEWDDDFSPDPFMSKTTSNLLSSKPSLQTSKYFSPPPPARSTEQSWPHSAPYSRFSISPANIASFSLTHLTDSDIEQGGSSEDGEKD
UniProt P07948: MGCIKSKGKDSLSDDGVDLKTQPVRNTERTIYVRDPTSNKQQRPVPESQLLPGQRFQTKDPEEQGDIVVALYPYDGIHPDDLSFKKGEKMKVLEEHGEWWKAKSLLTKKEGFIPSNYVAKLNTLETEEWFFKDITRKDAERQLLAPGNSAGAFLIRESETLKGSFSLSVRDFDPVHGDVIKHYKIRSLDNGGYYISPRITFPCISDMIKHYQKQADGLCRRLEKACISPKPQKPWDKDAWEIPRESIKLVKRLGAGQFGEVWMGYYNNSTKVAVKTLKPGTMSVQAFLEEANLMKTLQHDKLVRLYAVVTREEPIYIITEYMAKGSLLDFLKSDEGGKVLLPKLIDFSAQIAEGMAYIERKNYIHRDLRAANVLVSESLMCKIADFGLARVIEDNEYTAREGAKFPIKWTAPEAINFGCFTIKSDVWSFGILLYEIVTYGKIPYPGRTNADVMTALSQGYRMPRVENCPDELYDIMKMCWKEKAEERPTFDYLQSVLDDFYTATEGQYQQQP
UniProt Q12851: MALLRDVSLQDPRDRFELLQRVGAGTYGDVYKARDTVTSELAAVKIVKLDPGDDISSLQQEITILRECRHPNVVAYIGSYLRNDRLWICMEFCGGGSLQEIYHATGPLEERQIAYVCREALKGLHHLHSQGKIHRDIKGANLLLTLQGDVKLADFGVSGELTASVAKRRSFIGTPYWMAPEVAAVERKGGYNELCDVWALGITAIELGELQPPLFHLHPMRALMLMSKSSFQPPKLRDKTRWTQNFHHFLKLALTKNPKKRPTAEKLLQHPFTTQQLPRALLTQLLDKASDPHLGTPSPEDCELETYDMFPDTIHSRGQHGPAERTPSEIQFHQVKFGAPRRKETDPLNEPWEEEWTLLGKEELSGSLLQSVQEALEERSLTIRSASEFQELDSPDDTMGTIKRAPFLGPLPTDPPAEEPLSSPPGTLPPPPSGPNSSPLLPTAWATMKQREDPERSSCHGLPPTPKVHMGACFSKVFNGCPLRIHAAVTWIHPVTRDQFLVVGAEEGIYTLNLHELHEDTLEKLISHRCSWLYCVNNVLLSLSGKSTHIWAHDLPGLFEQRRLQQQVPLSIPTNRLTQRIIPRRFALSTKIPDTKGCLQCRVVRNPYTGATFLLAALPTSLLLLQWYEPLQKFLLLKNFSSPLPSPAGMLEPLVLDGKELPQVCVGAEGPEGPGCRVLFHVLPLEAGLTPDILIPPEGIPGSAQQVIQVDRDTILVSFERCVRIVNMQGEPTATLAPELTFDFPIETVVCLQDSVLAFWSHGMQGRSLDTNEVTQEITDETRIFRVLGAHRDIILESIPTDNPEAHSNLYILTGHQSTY

Columns and labels:
Experiment in all cases: kinase-Nluc reporter destabilization hit call (1 = scored as downregulated) (binary); higher = compound decreases kinase abundance
Details in all cases: K562; 2-18 h
[1] = biological target: IRAK3 (UniProt Q9Y616)
[2] = biological target: JAK1 (UniProt P23458)
[3] = biological target: LCK (UniProt P06239)
[4] = biological target: LIMK1 (UniProt P53667)
[5] = biological target: LIMK2 (UniProt P53671)
[6] = biological target: LMTK2 (UniProt Q8IWU2)
[7] = biological target: LYN (UniProt P07948)
[8] = biological target: MAP2K1 (UniProt Q02750)
[9] = biological target: MAP2K2 (UniProt P36507)
[10] = biological target: MAP4K2 (UniProt Q12851)

Measured: kinase-Nluc reporter destabilization hit call

Cc1c(C(=O)N2CCOc3ccc(-c4ccc(N)nc4)cc3C2)ccc(S(C)(=O)=O)c1F (10 µM)
inactive: [1] 0 | [2] 0 | [3] 0 | [4] 0 | [5] 0 | [6] 0 | [7] 0 | [8] 0 | [9] 0 | [10] 0

Cc1[nH]c(/C=C2\C(=O)Nc3ccc(S(=O)(=O)Cc4c(Cl)cccc4Cl)cc32)c(C)c1C(=O)N1CCC[C@@H]1CN1CCCC1 (2.5 µM)
inactive: [1] 0 | [2] 0 | [3] 0 | [4] 0 | [5] 0 | [6] 0 | [7] 0 | [8] 0 | [9] 0 | [10] 0

COc1ccc(Oc2cc(NCCC(F)(F)F)c3ncc(-c4ccc(C(=O)NC5CC5)c(C)c4)n3n2)c(F)c1F (2.5 µM)
inactive: [1] 0 | [2] 0 | [3] 0 | [4] 0 | [5] 0 | [6] 0 | [7] 0 | [8] 0 | [9] 0 | [10] 0

Cc1c[nH]c(/C=C2\C(=O)Nc3ccccc32)c1CCC(=O)O (10 µM)
inactive: [1] 0 | [2] 0 | [3] 0 | [4] 0 | [5] 0 | [6] 0 | [7] 0 | [8] 0 | [9] 0 | [10] 0

COCCOc1cc2nccc(Nc3n[nH]c(C)c3C)c2cc1S(=O)(=O)C(C)(C)C [RIP2 kinase inhibitor 2] (2.5 µM)
inactive: [1] 0 | [2] 0 | [3] 0 | [4] 0 | [5] 0 | [6] 0 | [7] 0 | [8] 0 | [9] 0 | [10] 0

COc1c(Cl)cc2c([nH]c3cnccc32)c1NC(=O)c1cccnc1C (10 µM)
inactive: [1] 0 | [2] 0 | [3] 0 | [4] 0 | [5] 0 | [6] 0 | [7] 0 | [8] 0 | [9] 0 | [10] 0

N#Cc1ccc2[nH]c(O)c(-c3ccc(CN4CCOCC4)cn3)c2c1 (10 µM)
inactive: [1] 0 | [2] 0 | [3] 0 | [4] 0 | [5] 0 | [6] 0 | [7] 0 | [8] 0 | [9] 0 | [10] 0

Cc1cccc([C@@H](CO)NC(=O)[C@@H](C)N2Cc3ccc(-c4nc(NC5CCOCC5)ncc4Cl)cc3C2=O)c1 [ERK1/2 inhibitor 1] (10 µM)
inactive: [1] 0 | [2] 0 | [3] 0 | [4] 0 | [5] 0 | [6] 0 | [7] 0 | [8] 0 | [9] 0 | [10] 0

COc1cc(CCc2cc(-c3nc4ccc(N5CCN(C)CC5)cc4[nH]3)n[nH]2)cc(OC)c1 (10 µM)
inactive: [1] 0 | [2] 0 | [3] 0 | [4] 0 | [5] 0 | [6] 0 | [7] 0 | [8] 0 | [9] 0 | [10] 0

Cc1cc(F)c(C(=O)Nc2cccc(-c3nncn3C(C)C)n2)cc1-n1cnc(C2CC2)c1 [Selonsertib] (10 µM)
inactive: [1] 0 | [2] 0 | [3] 0 | [4] 0 | [5] 0 | [6] 0 | [7] 0 | [8] 0 | [9] 0 | [10] 0

CC(C)=CC/C=C(\C)[C@H]1CC[C@]2(C)[C@@H]1[C@H](O)C[C@@H]1[C@@]3(C)CC[C@H](O[C@@H]4O[C@H](CO)[C@@H](O)[C@H](O)[C@H]4O[C@@H]4O[C@H](CO)[C@@H](O)[C@H](O)[C@H]4O)C(C)(C)[C@@H]3CC[C@]12C [Ginsenoside Rg5] (10 µM)
inactive: [1] 0 | [2] 0 | [3] 0 | [4] 0 | [5] 0 | [6] 0 | [7] 0 | [8] 0 | [9] 0 | [10] 0

Cc1ccc(F)c(NC(=O)Nc2ccc(-c3cccc4[nH]nc(N)c34)cc2)c1 [Linifanib] (2.5 µM)
active: [7] 1
inactive: [1] 0 | [2] 0 | [3] 0 | [4] 0 | [5] 0 | [6] 0 | [8] 0 | [9] 0 | [10] 0

CN(C)CCOc1ccc(-c2nc(-c3ccncc3)c(-c3ccc4c(c3)CC/C4=N\O)[nH]2)cc1 (10 µM)
inactive: [1] 0 | [2] 0 | [3] 0 | [4] 0 | [5] 0 | [6] 0 | [7] 0 | [8] 0 | [9] 0 | [10] 0

C=CC(=O)N1CCN(CCCn2c(=O)c(-c3c(Cl)c(OC)cc(OC)c3Cl)cc3cnc(NC)nc32)CC1 (10 µM)
inactive: [1] 0 | [2] 0 | [3] 0 | [4] 0 | [5] 0 | [6] 0 | [7] 0 | [8] 0 | [9] 0 | [10] 0

Cc1c(Cn2c(C)nc3c(C(=O)O)cc(N4CCOCC4)cc32)cccc1C(F)(F)F (10 µM)
inactive: [1] 0 | [2] 0 | [3] 0 | [4] 0 | [5] 0 | [6] 0 | [7] 0 | [8] 0 | [9] 0 | [10] 0

CN1CCN(S(=O)(=O)c2ccc(-c3cnc(N)c(C(=O)Nc4cccnc4)n3)cc2)CC1 (10 µM)
inactive: [1] 0 | [2] 0 | [3] 0 | [4] 0 | [5] 0 | [6] 0 | [7] 0 | [8] 0 | [9] 0 | [10] 0

Cn1nc(C(C)(C)C)cc1NC(=O)Nc1ccc(Oc2ccncc2)cc1 (10 µM)
inactive: [1] 0 | [2] 0 | [3] 0 | [4] 0 | [5] 0 | [6] 0 | [7] 0 | [8] 0 | [9] 0 | [10] 0

Cc1c[nH]c2nccc(Oc3c(F)cc(Nc4cc(Cl)nc(N)n4)cc3F)c12 (10 µM)
inactive: [1] 0 | [2] 0 | [3] 0 | [4] 0 | [5] 0 | [6] 0 | [7] 0 | [8] 0 | [9] 0 | [10] 0

FC(F)(F)c1ccc(CNc2ccc(Cc3c[nH]c4ncc(Cl)cc34)cn2)cc1 (10 µM)
inactive: [1] 0 | [2] 0 | [3] 0 | [4] 0 | [5] 0 | [6] 0 | [7] 0 | [8] 0 | [9] 0 | [10] 0

COc1cc(C(=O)NC2CCN(C)CC2)c(F)cc1Nc1ncc2c(n1)N(C1CCCC1)CC(F)(F)C(=O)N2C [TAK-960 (dihydrochloride)] (2.5 µM)
inactive: [1] 0 | [2] 0 | [3] 0 | [4] 0 | [5] 0 | [6] 0 | [7] 0 | [8] 0 | [9] 0 | [10] 0

Not a retest: two of the compounds above.
CN1CCN(S(=O)(=O)c2ccc(-c3cnc(N)c(C(=O)Nc4cccnc4)n3)cc2)CC1 (10 µM)
inactive: [1] 0 | [2] 0 | [3] 0 | [4] 0 | [5] 0 | [6] 0 | [7] 0 | [8] 0 | [9] 0 | [10] 0

Cn1nc(C(C)(C)C)cc1NC(=O)Nc1ccc(Oc2ccncc2)cc1 (10 µM)
inactive: [1] 0 | [2] 0 | [3] 0 | [4] 0 | [5] 0 | [6] 0 | [7] 0 | [8] 0 | [9] 0 | [10] 0

The list goes on:

O=S(=O)(NCCNC/C=C/c1ccc(Br)cc1)c1cccc2cnccc12 [H-89 (dihydrochloride)] (10 µM)
inactive: [1] 0 | [2] 0 | [3] 0 | [4] 0 | [5] 0 | [6] 0 | [7] 0 | [8] 0 | [9] 0 | [10] 0

CC(=O)NCC(=O)N1[C@@H]2CC[C@H]1c1ccc(Nc3ncc(C(F)(F)F)c(NC4CCC4)n3)cc12 (2.5 µM)
inactive: [1] 0 | [2] 0 | [3] 0 | [4] 0 | [5] 0 | [6] 0 | [7] 0 | [8] 0 | [9] 0 | [10] 0

CCCn1cnc2c(NCc3ccccc3)nc(NC(CC)CO)nc21 (stereo not given) [Ca2+ channel agonist 1] (2.5 µM)
inactive: [1] 0 | [2] 0 | [3] 0 | [4] 0 | [5] 0 | [6] 0 | [7] 0 | [8] 0 | [9] 0 | [10] 0

CNC(=O)c1cccc2cc(Oc3ccnc4cc(OCC5(N)CC5)c(OC)cc34)ccc12 [Lucitanib] (10 µM)
inactive: [1] 0 | [2] 0 | [3] 0 | [4] 0 | [5] 0 | [6] 0 | [7] 0 | [8] 0 | [9] 0 | [10] 0

COCCNCCc1cccc(Nc2ncc3c(n2)-c2ccccc2[C@H](c2ccccc2F)C3)c1 [Derazantinib] (2.5 µM)
inactive: [1] 0 | [2] 0 | [3] 0 | [4] 0 | [5] 0 | [6] 0 | [7] 0 | [8] 0 | [9] 0 | [10] 0

O=c1cc(-c2ccccc2)oc2c(O)c(O)ccc12 [7,8-Dihydroxyflavone] (10 µM)
inactive: [1] 0 | [2] 0 | [3] 0 | [4] 0 | [5] 0 | [6] 0 | [7] 0 | [8] 0 | [9] 0 | [10] 0

O=C1NCCc2[nH]c(-c3ccnc(-c4cnc5ccccc5c4)c3)cc21 (10 µM)
inactive: [1] 0 | [2] 0 | [3] 0 | [4] 0 | [5] 0 | [6] 0 | [7] 0 | [8] 0 | [9] 0 | [10] 0

CCOc1cc2ncc(C#N)c(Nc3ccc(OCc4ccccn4)c(Cl)c3)c2cc1NC(=O)/C=C/CN(C)C [Neratinib] (10 µM)
inactive: [1] 0 | [2] 0 | [3] 0 | [4] 0 | [5] 0 | [6] 0 | [7] 0 | [8] 0 | [9] 0 | [10] 0

C[C@H](NC(=O)/C(C#N)=C/c1cccc(Br)n1)c1ccccc1 (2.5 µM)
inactive: [1] 0 | [2] 0 | [3] 0 | [4] 0 | [5] 0 | [6] 0 | [7] 0 | [8] 0 | [9] 0 | [10] 0
